Values from PubChem BioAssay AID1259283 (Sanger Institute, 2017)
Assay: 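Kinases needed for HT115 growth and partners for drug synergy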 (primary screen). Cells: HT115 colorectal cancer cells. Knock-down reagent: siRNA pool against human genes. Treatment: anchor drug given one day after siRNA: BYL719 at 1 µM, cetuximab at 5 µg/ml, trametinib at 10 nM, or DMSO vehicle alone. Read-out: 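Viability normalised to non-targeting pool #2 wells and averaged over replicates, robust z-score against control wells, and a synergy score for each of three drugs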. Direction: robust z-score, knock-down alone: higher = more viable cells after knock-down; viability, DMSO vs non-targeting control: higher = more viable cells. Active means: 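Essential gene: robust z-score less than -3 with no drug added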. Meaning of the calls: active = essential (z below -3, no drug); inactive = no change without drug.
In all, the deposit lists 794 reagents; shown is a part drawn at random. 14 of all reagents (1.8%) were called active. 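Calls reflect only viability loss without drug; drug synergy does not enter the call.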 Viability is capped at 1. Further read-outs or replicates are left out here. Not stated in the record: the amount of reagent, the time to read-out.

no.	gene	PubChem SID	robust z-score, knock-down alone	viability, DMSO vs non-targeting control (fraction of control)	outcome
1	CPNE3 (GeneID 8895)	SID134315878	-0.189	0.91	inactive
2	CALM3 (GeneID 808)	SID152148336	0.789	1	inactive
3	PRKG1 (GeneID 5592)	SID152152064	0.74	0.995	inactive
4	PAK1 (GeneID 5058)	SID135620692	0.585	0.981	inactive
5	CDK17 (GeneID 5128)	SID56478886	0.691	0.991	inactive
6	AGK (GeneID 55750)	SID56479172	0.225	0.948	inactive
7	MAP3K10 (GeneID 4294)	SID56478692	0.689	0.991	inactive
8	RPS6KB2 (GeneID 6199)	SID152153683	0.279	0.953	inactive
9	LCK (GeneID 3932)	SID152150546	0.789	1	inactive
10	NR4A2 (GeneID 4929)	SID134309878	-1.01	0.834	inactive
11	NTN4 (GeneID 59277)	SID152155179	-1.79	0.762	inactive
12	PKIB (GeneID 5570)	SID56479212	0.789	1	inactive
13	DDR1 (GeneID 780)	SID152155868	0.789	1	inactive
14	PANK3 (GeneID 79646)	SID56479122	0.789	1	inactive
15	BUB1B (GeneID 701)	SID152154799	-0.0376	0.924	inactive
16	CDKN1C (GeneID 1028)	SID56478604	-0.272	0.902	inactive
17	FBXW7 (GeneID 55294)	SID152153107	0.789	1	inactive
18	CKS1B (GeneID 1163)	SID56478807	0.238	0.949	inactive
19	CEP290 (GeneID 80184)	SID152154792	0.789	1	inactive
20	NEK7 (GeneID 140609)	SID56478729	0.789	1	inactive
21	PGK2 (GeneID 5232)	SID135621248	0.427	0.967	inactive
22	TP53 (GeneID 7157)	SID135620665	-1.99	0.743	inactive
23	BUB1 (GeneID 699)	SID152152440	0.131	0.939	inactive
24	NME6 (GeneID 10201)	SID56479120	-3.26	0.626	active
25	AMER1 (GeneID 139285)	SID135623077	0.789	1	inactive
26	SGK3 (GeneID 23678)	SID56478777	0.789	1	inactive
27	NEK3 (GeneID 4752)	SID152154962	-0.777	0.855	inactive
28	GRK1 (GeneID 6011)	SID152156219	-0.566	0.875	inactive
29	MAP4K3 (GeneID 8491)	SID135620707	-1.12	0.823	inactive
30	FXR1 (GeneID 8087)	SID152147249	0.789	1	inactive
31	VRK1 (GeneID 7443)	SID152147475	-0.522	0.879	inactive
32	PFKL (GeneID 5211)	SID56479167	0.789	1	inactive
33	HIPK4 (GeneID 147746)	SID135620890	0.789	1	inactive
34	KMT2B (GeneID 9757)	SID134314396	0.789	1	inactive
35	MAP4K1 (GeneID 11184)	SID56478699	-0.111	0.917	inactive
36	ILK (GeneID 3611)	SID152151227	0.00463	0.928	inactive
37	ILK (GeneID 3611)	SID152153406	-0.4	0.89	inactive
38	SCYL3 (GeneID 57147)	SID56479033	-0.28	0.901	inactive
39	DIS3 (GeneID 22894)	SID134319450	0.789	1	inactive
40	SRPK3 (GeneID 26576)	SID135620894	-0.306	0.899	inactive
41	PIK3CD (GeneID 5293)	SID135621250	0.789	1	inactive
42	CLK4 (GeneID 57396)	SID56478876	0.789	1	inactive
43	EIF2AK3 (GeneID 9451)	SID152151333	0.453	0.969	inactive
44	GTF2H1 (GeneID 2965)	SID56479243	-0.937	0.84	inactive
45	HCK (GeneID 3055)	SID135620622	0.47	0.971	inactive
46	PIK3R2 (GeneID 5296)	SID135620607	-0.0523	0.922	inactive
47	MAP2K1 (GeneID 5604)	SID56478687	0.774	0.999	inactive
48	NEK10 (GeneID 152110)	SID56478763	0.789	1	inactive
49	DYRK2 (GeneID 8445)	SID152156553	-0.321	0.897	inactive
50	MAP3K4 (GeneID 4216)	SID152151893	0.789	1	inactive
51	JAK2 (GeneID 3717)	SID56478524	-1.39	0.798	inactive
52	PLK4 (GeneID 10733)	SID152155543	-2.78	0.67	inactive
53	MAP2K3 (GeneID 5606)	SID152148115	-0.105	0.917	inactive
54	CASK (GeneID 8573)	SID56479000	-0.0244	0.925	inactive
55	PAK2 (GeneID 5062)	SID135620709	0.739	0.995	inactive
56	XYLB (GeneID 9942)	SID152153831	0.2	0.946	inactive
57	TPK1 (GeneID 27010)	SID135621256	-1.1	0.825	inactive
58	GUCY2EP (GeneID 390226)	SID152152788	-0.382	0.892	inactive
59	WEE1 (GeneID 7465)	SID152152823	-2	0.742	inactive
60	LMTK1 (GeneID 9625)	SID152151616	-2.53	0.694	inactive
61	KHK (GeneID 3795)	SID135621242	0.789	1	inactive
62	HIPK2 (GeneID 28996)	SID56478619	0.293	0.954	inactive
63	ADK (GeneID 132)	SID56478860	0.789	1	inactive

6 entries already listed, arranged by “robust z-score, knock-down alone”, high to low:
gene	PubChem SID	robust z-score, knock-down alone	viability, DMSO vs non-targeting control (fraction of control)	outcome
MAP3K4 (GeneID 4216)	SID152151893	0.789	1	inactive
PAK2 (GeneID 5062)	SID135620709	0.739	0.995	inactive
CASK (GeneID 8573)	SID56479000	-0.0244	0.925	inactive
MAP2K3 (GeneID 5606)	SID152148115	-0.105	0.917	inactive
JAK2 (GeneID 3717)	SID56478524	-1.39	0.798	inactive
PLK4 (GeneID 10733)	SID152155543	-2.78	0.67	inactive
